# Data: the supplement of paper PMC12067093, “Discovery and optimisation of a covalent ligand for TRIM25 and its application to targeted protein ubiquitination” (Chemical Science, 2025)
# Chains of the proteins cited; added tags and fusions are not shown. Lines headed by an entry give the natural chain unless they say otherwise; changes in a name come on top.
# UniProt Q06587: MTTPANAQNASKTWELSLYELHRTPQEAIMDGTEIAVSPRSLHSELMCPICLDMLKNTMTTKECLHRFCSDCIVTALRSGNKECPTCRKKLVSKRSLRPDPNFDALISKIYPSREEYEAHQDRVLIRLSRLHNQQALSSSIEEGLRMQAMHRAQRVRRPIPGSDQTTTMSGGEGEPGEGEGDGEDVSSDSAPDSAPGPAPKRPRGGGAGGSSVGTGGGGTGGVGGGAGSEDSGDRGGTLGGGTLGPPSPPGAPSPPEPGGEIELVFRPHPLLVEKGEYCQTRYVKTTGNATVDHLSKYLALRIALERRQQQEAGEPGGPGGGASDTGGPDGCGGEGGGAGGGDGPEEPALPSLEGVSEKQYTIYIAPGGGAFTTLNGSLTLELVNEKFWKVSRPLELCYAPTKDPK
# UniProt Q6PCD5: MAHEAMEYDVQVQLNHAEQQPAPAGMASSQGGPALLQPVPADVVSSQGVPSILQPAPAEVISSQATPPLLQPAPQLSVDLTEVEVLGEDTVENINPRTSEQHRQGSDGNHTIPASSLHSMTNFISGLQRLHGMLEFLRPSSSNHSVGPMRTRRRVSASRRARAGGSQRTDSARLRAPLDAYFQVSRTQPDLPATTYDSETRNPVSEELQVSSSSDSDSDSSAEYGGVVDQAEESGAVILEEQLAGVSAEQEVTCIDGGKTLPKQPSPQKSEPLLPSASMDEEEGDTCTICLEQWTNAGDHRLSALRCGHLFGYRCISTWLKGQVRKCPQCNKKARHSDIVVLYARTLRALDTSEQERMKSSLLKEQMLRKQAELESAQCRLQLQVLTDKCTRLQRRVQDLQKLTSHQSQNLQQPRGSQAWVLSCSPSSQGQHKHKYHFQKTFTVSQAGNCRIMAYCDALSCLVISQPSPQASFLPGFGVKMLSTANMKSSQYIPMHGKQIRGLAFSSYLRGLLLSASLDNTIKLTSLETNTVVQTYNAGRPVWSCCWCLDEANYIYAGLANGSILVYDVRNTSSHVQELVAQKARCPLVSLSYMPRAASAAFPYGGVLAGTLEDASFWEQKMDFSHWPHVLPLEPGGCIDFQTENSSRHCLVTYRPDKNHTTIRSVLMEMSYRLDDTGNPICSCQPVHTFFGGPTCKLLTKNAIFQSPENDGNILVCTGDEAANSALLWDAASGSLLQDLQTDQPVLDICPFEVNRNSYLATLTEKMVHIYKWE
# UniProt Q9BVS4: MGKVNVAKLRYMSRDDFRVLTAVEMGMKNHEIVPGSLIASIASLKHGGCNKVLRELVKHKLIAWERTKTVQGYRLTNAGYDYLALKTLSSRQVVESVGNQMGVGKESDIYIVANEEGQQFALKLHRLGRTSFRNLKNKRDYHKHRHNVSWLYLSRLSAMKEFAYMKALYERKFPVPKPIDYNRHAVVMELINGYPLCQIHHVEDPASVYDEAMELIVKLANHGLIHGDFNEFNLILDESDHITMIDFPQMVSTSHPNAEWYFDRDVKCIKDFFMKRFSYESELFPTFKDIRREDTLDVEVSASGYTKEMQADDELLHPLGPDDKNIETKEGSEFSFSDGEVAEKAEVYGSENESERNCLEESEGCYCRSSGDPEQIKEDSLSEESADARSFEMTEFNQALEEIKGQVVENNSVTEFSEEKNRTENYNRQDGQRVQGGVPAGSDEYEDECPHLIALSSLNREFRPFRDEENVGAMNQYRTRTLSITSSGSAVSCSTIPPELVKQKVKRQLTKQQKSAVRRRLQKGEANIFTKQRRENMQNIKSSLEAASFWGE
# UniProt Q6NW40: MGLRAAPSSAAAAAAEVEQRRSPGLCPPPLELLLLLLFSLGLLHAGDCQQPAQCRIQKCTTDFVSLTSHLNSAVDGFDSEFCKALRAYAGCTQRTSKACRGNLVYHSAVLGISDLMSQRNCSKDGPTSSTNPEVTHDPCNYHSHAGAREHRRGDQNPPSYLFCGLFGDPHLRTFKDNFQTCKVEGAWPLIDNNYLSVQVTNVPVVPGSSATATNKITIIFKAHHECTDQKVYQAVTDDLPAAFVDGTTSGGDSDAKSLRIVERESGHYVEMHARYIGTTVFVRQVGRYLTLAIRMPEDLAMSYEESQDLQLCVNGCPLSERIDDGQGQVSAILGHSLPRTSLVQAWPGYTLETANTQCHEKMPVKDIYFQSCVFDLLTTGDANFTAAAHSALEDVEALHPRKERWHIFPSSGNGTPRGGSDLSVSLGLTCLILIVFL
# UniProt Q13129: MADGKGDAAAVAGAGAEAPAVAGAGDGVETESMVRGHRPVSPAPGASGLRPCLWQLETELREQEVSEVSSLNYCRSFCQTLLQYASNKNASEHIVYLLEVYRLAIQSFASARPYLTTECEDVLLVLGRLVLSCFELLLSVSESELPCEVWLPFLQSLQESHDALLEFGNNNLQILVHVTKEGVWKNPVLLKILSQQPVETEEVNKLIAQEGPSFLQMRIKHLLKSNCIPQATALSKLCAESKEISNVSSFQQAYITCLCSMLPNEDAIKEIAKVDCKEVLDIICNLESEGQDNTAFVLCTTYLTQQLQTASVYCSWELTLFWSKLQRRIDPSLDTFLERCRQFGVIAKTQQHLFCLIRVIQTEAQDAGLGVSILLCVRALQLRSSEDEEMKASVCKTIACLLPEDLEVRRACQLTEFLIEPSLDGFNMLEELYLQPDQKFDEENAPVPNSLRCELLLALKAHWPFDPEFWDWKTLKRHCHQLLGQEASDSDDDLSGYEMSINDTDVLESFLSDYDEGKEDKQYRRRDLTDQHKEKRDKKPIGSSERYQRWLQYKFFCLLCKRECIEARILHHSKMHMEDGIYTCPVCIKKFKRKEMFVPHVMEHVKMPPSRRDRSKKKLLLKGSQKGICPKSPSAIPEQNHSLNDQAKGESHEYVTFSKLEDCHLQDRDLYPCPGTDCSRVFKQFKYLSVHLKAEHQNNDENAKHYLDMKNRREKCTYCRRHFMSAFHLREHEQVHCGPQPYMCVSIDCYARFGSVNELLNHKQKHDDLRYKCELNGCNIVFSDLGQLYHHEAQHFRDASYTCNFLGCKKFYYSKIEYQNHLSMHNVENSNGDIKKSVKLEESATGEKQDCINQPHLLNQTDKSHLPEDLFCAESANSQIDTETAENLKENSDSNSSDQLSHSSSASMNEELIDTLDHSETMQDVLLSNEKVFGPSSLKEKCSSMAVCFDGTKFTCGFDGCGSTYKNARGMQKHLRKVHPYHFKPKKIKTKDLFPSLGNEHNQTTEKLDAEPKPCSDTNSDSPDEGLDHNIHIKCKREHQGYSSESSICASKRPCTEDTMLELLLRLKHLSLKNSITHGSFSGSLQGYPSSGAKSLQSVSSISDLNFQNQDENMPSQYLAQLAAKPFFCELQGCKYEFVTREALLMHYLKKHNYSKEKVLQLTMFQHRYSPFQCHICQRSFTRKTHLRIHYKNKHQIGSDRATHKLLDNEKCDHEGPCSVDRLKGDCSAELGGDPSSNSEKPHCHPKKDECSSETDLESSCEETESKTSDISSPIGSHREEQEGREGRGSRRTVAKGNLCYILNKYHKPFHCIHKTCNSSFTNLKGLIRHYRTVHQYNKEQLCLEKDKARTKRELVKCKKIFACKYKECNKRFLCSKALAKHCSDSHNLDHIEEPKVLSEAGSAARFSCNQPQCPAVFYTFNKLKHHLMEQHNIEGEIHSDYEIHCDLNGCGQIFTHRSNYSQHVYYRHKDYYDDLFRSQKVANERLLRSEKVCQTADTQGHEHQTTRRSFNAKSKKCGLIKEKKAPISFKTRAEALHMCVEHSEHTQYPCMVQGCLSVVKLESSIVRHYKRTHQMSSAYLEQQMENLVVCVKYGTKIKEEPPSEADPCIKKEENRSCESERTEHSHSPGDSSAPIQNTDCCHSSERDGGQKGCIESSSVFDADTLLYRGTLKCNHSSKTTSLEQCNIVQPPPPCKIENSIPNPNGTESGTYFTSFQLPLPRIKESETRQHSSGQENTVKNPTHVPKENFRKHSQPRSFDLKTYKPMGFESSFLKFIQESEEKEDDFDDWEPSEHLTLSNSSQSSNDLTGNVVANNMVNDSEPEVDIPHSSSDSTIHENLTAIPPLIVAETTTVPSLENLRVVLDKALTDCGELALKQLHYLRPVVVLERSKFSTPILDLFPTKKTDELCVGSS
# UniProt O75792: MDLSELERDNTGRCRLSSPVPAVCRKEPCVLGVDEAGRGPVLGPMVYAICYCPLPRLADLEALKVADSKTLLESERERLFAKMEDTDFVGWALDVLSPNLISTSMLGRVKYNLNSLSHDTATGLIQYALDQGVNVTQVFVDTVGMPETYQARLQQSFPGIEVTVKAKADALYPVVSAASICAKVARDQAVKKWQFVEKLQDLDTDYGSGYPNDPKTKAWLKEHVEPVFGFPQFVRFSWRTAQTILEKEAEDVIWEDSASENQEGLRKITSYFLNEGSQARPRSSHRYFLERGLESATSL
# UniProt P61586, whole entry: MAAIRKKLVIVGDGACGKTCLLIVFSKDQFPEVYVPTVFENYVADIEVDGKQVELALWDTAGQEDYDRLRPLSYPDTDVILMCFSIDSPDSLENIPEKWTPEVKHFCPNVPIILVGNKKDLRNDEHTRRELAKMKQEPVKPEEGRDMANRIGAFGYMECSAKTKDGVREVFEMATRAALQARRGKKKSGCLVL
# UniProt Q8NBN7: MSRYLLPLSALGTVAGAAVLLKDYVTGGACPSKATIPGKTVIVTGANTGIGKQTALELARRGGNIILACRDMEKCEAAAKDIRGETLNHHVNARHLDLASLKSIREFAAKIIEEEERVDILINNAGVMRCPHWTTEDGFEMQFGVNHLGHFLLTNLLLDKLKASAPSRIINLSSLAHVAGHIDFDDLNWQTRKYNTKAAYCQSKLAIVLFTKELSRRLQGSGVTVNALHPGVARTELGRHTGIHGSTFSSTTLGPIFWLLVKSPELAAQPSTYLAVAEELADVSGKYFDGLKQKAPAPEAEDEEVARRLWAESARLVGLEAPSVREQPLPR
# UniProt Q14699: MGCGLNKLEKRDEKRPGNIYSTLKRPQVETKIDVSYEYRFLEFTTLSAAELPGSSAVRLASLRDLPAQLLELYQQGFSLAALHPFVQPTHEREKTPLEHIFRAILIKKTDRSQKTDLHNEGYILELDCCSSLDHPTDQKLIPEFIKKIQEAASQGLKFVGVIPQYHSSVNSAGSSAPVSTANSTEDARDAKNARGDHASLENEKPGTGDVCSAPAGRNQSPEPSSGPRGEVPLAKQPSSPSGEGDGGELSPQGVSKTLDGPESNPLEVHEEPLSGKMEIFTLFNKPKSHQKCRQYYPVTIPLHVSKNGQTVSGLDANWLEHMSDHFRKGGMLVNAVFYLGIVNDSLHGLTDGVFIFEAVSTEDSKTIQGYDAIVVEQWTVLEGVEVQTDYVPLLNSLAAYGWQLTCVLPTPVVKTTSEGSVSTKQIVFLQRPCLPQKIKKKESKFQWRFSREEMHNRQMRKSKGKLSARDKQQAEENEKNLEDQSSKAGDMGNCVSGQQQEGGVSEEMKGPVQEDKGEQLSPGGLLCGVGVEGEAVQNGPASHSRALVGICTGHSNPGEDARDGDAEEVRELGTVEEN
# UniProt O00584, whole entry, looked up: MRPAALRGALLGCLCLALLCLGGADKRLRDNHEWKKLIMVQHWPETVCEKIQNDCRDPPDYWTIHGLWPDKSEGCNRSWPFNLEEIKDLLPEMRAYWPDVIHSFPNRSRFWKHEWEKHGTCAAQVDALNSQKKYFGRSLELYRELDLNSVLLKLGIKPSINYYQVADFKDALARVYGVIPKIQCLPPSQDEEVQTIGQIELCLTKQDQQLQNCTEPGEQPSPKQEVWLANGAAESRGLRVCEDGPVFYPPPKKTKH
# UniProt P51606: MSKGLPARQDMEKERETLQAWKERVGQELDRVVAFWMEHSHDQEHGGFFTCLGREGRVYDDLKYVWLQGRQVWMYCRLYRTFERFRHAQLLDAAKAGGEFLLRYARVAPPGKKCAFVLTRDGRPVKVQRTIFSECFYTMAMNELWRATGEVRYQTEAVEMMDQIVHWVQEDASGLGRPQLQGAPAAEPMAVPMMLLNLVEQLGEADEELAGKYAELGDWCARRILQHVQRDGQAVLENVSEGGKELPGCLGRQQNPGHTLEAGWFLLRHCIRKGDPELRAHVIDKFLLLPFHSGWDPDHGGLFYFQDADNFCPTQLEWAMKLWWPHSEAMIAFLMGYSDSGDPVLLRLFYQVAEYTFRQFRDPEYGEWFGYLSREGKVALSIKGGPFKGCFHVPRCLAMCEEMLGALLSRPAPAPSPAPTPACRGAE
# UniProt Q9Y508: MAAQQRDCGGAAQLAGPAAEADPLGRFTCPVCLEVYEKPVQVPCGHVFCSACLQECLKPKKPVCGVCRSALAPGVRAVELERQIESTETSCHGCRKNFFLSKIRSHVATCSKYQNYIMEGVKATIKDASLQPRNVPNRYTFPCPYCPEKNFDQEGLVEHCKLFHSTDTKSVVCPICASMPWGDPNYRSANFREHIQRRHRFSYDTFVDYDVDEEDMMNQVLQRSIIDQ
# The list shows a part of the results.
# Compound: CC1Cc2ccccc2N1C(=O)C1CCCN(C1)C(=O)CCl (mixture of isomers) [TRIM25 ligand 11 (diastereomer mixture)]
# Assay: probe-labelled cysteine peptide fold change vs DMSO (competition) (log2 fold change); higher = less target engagement (more negative = stronger competition)
# Conditions: THP-1, incubation time: 4 h
# 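Note: competitive chemoproteomic profiling in live THP-1 cells with an iodoacetamide desthiobiotin (IA-DTB) probe, comparing probe-labelled peptide intensities in compound-treated cells against DMSO-treated controls.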
Target,probe-labelled cysteine peptide fold change (10 µM),probe-labelled cysteine peptide fold change (50 µM)
RING1_Q06587_51_SLHSELMCPICLDMLK (UniProt Q06587),-0.00589,-0.233
RFWD3_Q6PCD5_638_MDFSHWPHVLPLEPGGCIDFQTENSSR (UniProt Q6PCD5),-0.386,-0.214
RNASEH2B_Q5TBB1_7_AAGVDCGDGVGAR (UniProt Q5TBB1),-0.0431,0.265
RFC3_P40938_11_YRPCSLGR (UniProt P40938),-0.00259,0.062
RIC1_Q4ADV7_904_FITEFPLFLQTVVHCAR (UniProt Q4ADV7),0.233,-0.0707
RICTOR_Q6R327_1651_YPQTFDDICLYSEVSHLLSHCTFR (UniProt Q6R327),0.201,-0.187
RECQL_P46063_49_QCLEDSDAGASNEYDSSPAAWNK (UniProt P46063),0.11,0.0687
RGL2_O15211_284_DRPGHSHLCPSVR (UniProt O15211),0.172,0.0684
RIPK1_Q13546_325_MQSLQLDCVAVPSSR (UniProt Q13546),0.094,-0.115
RIOK2_Q9BVS4_449_VQGGVPAGSDEYEDECPHLIALSSLNR (UniProt Q9BVS4),-0.148,-0.353
RHOT1_Q8IXI2_216_ICFNTPLAPQALEDVK (UniProt Q8IXI2),0.44,0.146
RGMB_Q6NW40_226_ITIIFKAHHECTDQK (UniProt Q6NW40),-0.5,-0.619
RNF123_Q5XPI4_1277_ACINQHLMNNK (UniProt Q5XPI4),-0.00143,-0.121
RHOT2_Q8IXI1_297_RFGYSDALELTADYLSPLIHVPPGCSTELNHLGYQFVQR (UniProt Q8IXI1),0.156,0.358
RIPOR1_Q6ZS17_289_GLANHVVVGSVSCETK (UniProt Q6ZS17),-0.0889,0.0156
REPIN1_Q9BWE0_167_CHPPAPEAR (UniProt Q9BWE0),0.0404,0.261
RHOT2_Q8IXI1_504_SFAHCASVYK (UniProt Q8IXI1),0.00523,-0.0637
RLF_Q13129_1591_THQMSSAYLEQQMENLVVCVK (UniProt Q13129),-0.0393,0.00406
RNASEH2A_O75792_29_KEPCVLGVDEAGR (UniProt O75792),0.00117,0.0161

Target,probe-labelled cysteine peptide fold change (10 µM),probe-labelled cysteine peptide fold change (50 µM)
RHOA_P61586_159_IGAFGYMECSAK (UniProt P61586),-0.0166,-0.0933
RFC1_P35251_916_AADSICDGDLVDSQIR (UniProt P35251),0.228,0.146
RGP1_Q92546_314_TSFSLPIPLSSTPGFCTAIVSLK (UniProt Q92546),-0.0704,0.306
RDH13_Q8NBN7_30_DYVTGGACPSK (UniProt Q8NBN7),0.0256,-0.029
RELCH_Q9P260_548_REELIPLILCTACLHPEPK (UniProt Q9P260),0.228,0.246
RIOK3_O14730_400_QLYHECTLVHADLSEYNMLWHAGK (UniProt O14730),0.0248,-0.027
RFTN1_Q14699_494_AGDMGNCVSGQQQEGGVSEEMK (UniProt Q14699),-0.258,-0.227
RNF138_Q8WVD3_34_TTACQHVFCR (UniProt Q8WVD3),-0.117,-0.0135
RECQL4_O94761_814_DGQPAHCHLFLQPQGEDLR (UniProt O94761),-0.0554,0.0221
RNASET2_O00584_55_IQNDCR (UniProt O00584),-0.0179,-0.093
RHOT2_Q8IXI1_216_SCFGHPLAPQALEDVK (UniProt Q8IXI1),0.0861,-0.218
RNASEH2A_O75792_50+52_GPVLGPMVYAICYCPLPR (UniProt O75792),-0.237,0.101
RENBP_P51606_396_CLAMCEEMLGALLSR (UniProt P51606),0.077,0.206
RNASET2_O00584_121_HGTCAAQVDALNSQKK (UniProt O00584),-0.141,-0.394
RNF114_Q9Y508_64_KPVCGVCR (UniProt Q9Y508),-0.057,-0.0367
RLF_Q13129_808_DASYTCNFLGCK (UniProt Q13129),-0.0307,-0.117
RENBP_P51606_135_TIFSECFYTMAMNELWR (UniProt P51606),0.397,0.52
RHOT2_Q8IXI1_185_QLRPACAQALTR (UniProt Q8IXI1),-0.0278,-0.07
RNASEH1_O60930_191_AEIHAACK (UniProt O60930),0.0147,-0.0199
